Structures are written as SMILES. Some of the results follow. Shown are side measurements of this screen, not its main read-out; they come without a call. Compounds called inactive in the main read-out are mostly missing here. Potencies come from curve fits of mixed quality, noted in brackets.

A word on the AC50: it is the midpoint of the concentration-response curve, whichever way the signal moves.

This experiment can be described thus: qHTS Assay to Find Inhibitors of Chronic Active B-Cell Receptor Signaling. The note with it: ABC-DLBCL IkBa-CBG/CBR reporter, luminescence ratio (green luciferase fused to IkBa over red control in TMD8 lymphoma cells), 4 h. The method in brief: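 Cell line TMD8 (human ABC DLBCL), stably expressing tet-inducible CBG68-IkBa fusion and CBR; IMDM/0.5% FBS; cpd up to 46 uM; dox induction, 4 h, 37C/5% CO2; dual luminescence; green/red ratio; MG132 control.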

The mark [1] stands for this setting: measured here: CBR red luminescence, cell number.
Setting [2] is: measured here: IkBa-CBG green luminescence.

Consider `COc1ccc(-n2c(SCC(N)=O)nnc2-c2ccccc2F)cc1`, for which the concentration at half-maximal activity (AC50) under setting [1] is 25.9 µM [rising, single point].

With `C#CC(CC)(CC)NC(=S)Nc1cccc(C(C)=O)c1`, the AC50 under setting [1] is 13 µM [rising, partial curve].

As to `COc1ccc(N2C(=O)CC(NNC(=O)c3cc(C)oc3C)C2=O)cc1` (configuration not stated), the concentration at half-maximal activity (AC50) under setting [1] is 3.98 µM [falling, partial curve, poor fit].

Turning to `CCOC(=O)C1=C(C)NC2=C(C(=O)C(C(=O)OCC)C(c3ccccc3OC)C2)C1c1ccccn1` (configuration not stated), the concentration at half-maximal activity (AC50) under setting [1] is 28.2 µM [falling, single point].

With `COC(=O)c1ccccc1NC(=O)N1c2ccccc2CC1C` (configuration not stated), the AC50 under setting [1] was 6.51 µM [rising, partial curve, poor fit].

As to `CCc1ccc(CN2CCCC(C(=O)Nc3ccc(-c4cscn4)cc3)C2)o1` (configuration not stated), the concentration at half-maximal activity (AC50) under setting [1] is 10 µM [falling, partial curve].

For the compound `Cc1cccc(OCc2nnc(SCC(=O)N3c4ccccc4CC3C)n2C)c1C` (configuration not stated), the AC50 under setting [1] was 9.2 µM [falling, partial curve, poor fit].

`COc1ccc(C(CNC(=O)CSc2ccc(Br)cc2)N2CCOCC2)cc1` (configuration not stated): the half-maximal activity concentration (AC50) under setting [1] was 5.8 µM [rising, single point].

`Cc1cc2cc(CNC(=O)CC(C)C)ccc2n1C`: the AC50 under setting [1] was 3.98 µM [rising, full curve, poor fit].

On to `O=C(NCc1cccnc1)/C(=C/c1ccc(-c2cccc(Cl)c2)o1)S(=O)(=O)c1ccccc1`, for which the half-maximal activity concentration (AC50) under setting [1] was 28.2 µM [falling, single point].

Consider `N#Cc1ccsc1NC(=O)CSc1nncs1`, for which the concentration at half-maximal activity (AC50) under setting [1] was 20.6 µM [falling, single point].

Regarding `Cc1ccc(NC(=S)c2ccccc2)cc1`, the half-maximal activity concentration (AC50) under setting [1] was 0.411 µM [rising, full curve, poor fit].

On to `CCN(CC(=O)Nc1ccccc1C(=O)OC)S(=O)(=O)c1ccccc1`, for which the AC50 under setting [1] was 29.1 µM [rising, partial curve, poor fit].

As for `Cc1ccc(-c2ccc(C(=O)Nc3ccccc3)o2)c2ccccc12`, the AC50 under setting [1] was 16.4 µM [falling, partial curve, poor fit].

For `CC1CCN(c2c(NCc3ccc(C(=O)N4c5ccccc5CC4C)cc3)c(=O)c2=O)CC1` (configuration not stated), the concentration at half-maximal activity (AC50) under setting [2] is 25.9 µM [falling, partial curve, poor fit].

Take `COc1ccc(CCN2CC(C(=O)Nc3cccc(C(C)=O)c3)CC2=O)cc1OC` (configuration not stated): under setting [1], the concentration at half-maximal activity (AC50) is 11.2 µM [rising, single point].

In the case of `CCC(=O)Nc1nnc(-c2ccc(OC)cc2)o1`, under setting [1], the AC50 was 16.4 µM [falling, single point].

Consider `CCOc1ccc(NS(=O)(=O)c2ccc(C(=O)NCC(c3ccco3)N3CCCC3)cc2)cc1` (configuration not stated), for which the AC50 under setting [1] is 29.1 µM [rising, single point].

For the compound `COc1ccc(-c2nn(-c3ccccc3)cc2C2CC(c3cccs3)=NN2C(=O)CCC(=O)O)cc1` (configuration not stated), under setting [1], the AC50 is 17.8 µM [falling, partial curve, poor fit].

`CCN(Cc1ccccc1)S(=O)(=O)c1ccc(C(=O)N(CCCN(C)C)c2nc3cc(C)cc(C)c3s2)cc1`: the half-maximal activity concentration (AC50) under setting [1] was 29.1 µM [falling, single point].

Regarding `C/C(=C\C(=S)Nc1ccccc1)Nc1ccccc1`, the concentration at half-maximal activity (AC50) under setting [1] is 8.2 µM [falling, partial curve, poor fit].

For `FC(F)(F)c1cc(-c2ccccc2)nc(NC2CCCC2)n1`, the AC50 under setting [1] is 6.51 µM [rising, single point].

As for `CN(C(=O)COC(=O)c1cccnc1Nc1ccccc1F)C1CCS(=O)(=O)C1` (configuration not stated), the concentration at half-maximal activity (AC50) under setting [1] was 13 µM [falling, partial curve, poor fit].

For the compound `c1ccc(CN2CCN(C3=Nc4cccc5cccc3c45)CC2)cc1`, under setting [1], the AC50 is 29.1 µM [rising, single point].

As for `COc1cc(/C=C/c2ccc3cccc(O)c3n2)cc(Cl)c1OC`, the concentration at half-maximal activity (AC50) under setting [1] is 8.91 µM [rising, partial curve, poor fit] and the AC50 under setting [2] was 20 µM [falling, partial curve, poor fit].

With `Cc1cc(C)n2nc(N)c(N=Nc3cccc(Cl)c3)c2n1`, under setting [1], the AC50 is 16.4 µM [rising, partial curve].

With `Cc1ccc(NC(=O)c2cc3ccccc3cc2O)cc1`, the AC50 under setting [1] is 14.1 µM [falling, single point].

In the case of `Cc1ccccc1OCCC(=O)OCC(=O)Nc1cc(S(=O)(=O)N2CCOCC2)ccc1Cl`, the concentration at half-maximal activity (AC50) under setting [1] is 15.8 µM [falling, single point].

`CCOC(=O)C1CCCCN1Cc1cc(OC)ccc1OC` (configuration not stated): the half-maximal activity concentration (AC50) under setting [1] is 29.1 µM [rising, single point].

On to `O=C1c2ccc(Br)cc2C(=O)N1c1ccc(Cl)cn1`, for which the AC50 under setting [1] was 11.2 µM [falling, partial curve].

Turning to `Nn1c(Cc2cccc3ccccc23)nnc1SCCOc1ccc(Br)cc1`, the concentration at half-maximal activity (AC50) under setting [1] was 16.4 µM [falling, partial curve, poor fit].

With `CCC(=O)c1ccc(-c2ccccc2)cc1`, the AC50 under setting [1] was 4.61 µM [rising, full curve, poor fit].

For the compound `Cc1ccc(C)c(N2CCN(C(=O)c3cccn4c(=O)c5sccc5nc34)CC2)c1`, the concentration at half-maximal activity (AC50) under setting [1] is 35.5 µM [falling, single point].

For `O=C(Nc1ccc(F)cc1F)Nc1csc2ccccc12`, under setting [1], the concentration at half-maximal activity (AC50) was 35.5 µM [falling, single point].

`COc1ccc(Nc2cc(C)c3ccccc3n2)cc1`: the AC50 under setting [1] was 20 µM [rising, partial curve, poor fit].

As to `CCOc1ccc(C)cc1S(=O)(=O)N1CCCCC1`, the AC50 under setting [1] was 1.46 µM [rising, full curve].

With `COc1ccc(-n2c(SCC(=O)Nc3sc4c(c3C#N)CCCC4)nnc2-c2ccc(O)cc2)cc1`, the AC50 under setting [1] was 1.46 µM [falling, partial curve, poor fit].

For `CCC1(c2ccc(Cl)cc2)NC(=O)N(Cc2ccc(C(=O)OC)cc2)C1=O` (configuration not stated), under setting [1], the AC50 is 22.4 µM [falling, single point].

With `O=C(Oc1ccc(Cl)c2ccccc12)N1CCCCC1`, the concentration at half-maximal activity (AC50) under setting [1] was 20.6 µM [rising, single point].

As to `N#C/C(=C\c1ccccc1)C(=O)Nc1cccnc1`, the AC50 under setting [1] is 6.31 µM [rising, partial curve, poor fit].

Consider `CC(C)(C)c1ccc(/C=C2/SC(N3CCCC3)=NC2=O)cc1`, for which, under setting [1], the concentration at half-maximal activity (AC50) was 12.6 µM [rising, partial curve, poor fit].

The values are drawn from PubChem BioAssay AID493014 (National Center for Advancing Translational Sciences (NCATS), 2011).
